# The supplement of paper PMC10849652
# Sequences of proteins named here, by UniProt entry; tags and fusion partners are left off. A change or cut given only in a name is not applied to a line headed by its entry.
# UniProt Q9H446: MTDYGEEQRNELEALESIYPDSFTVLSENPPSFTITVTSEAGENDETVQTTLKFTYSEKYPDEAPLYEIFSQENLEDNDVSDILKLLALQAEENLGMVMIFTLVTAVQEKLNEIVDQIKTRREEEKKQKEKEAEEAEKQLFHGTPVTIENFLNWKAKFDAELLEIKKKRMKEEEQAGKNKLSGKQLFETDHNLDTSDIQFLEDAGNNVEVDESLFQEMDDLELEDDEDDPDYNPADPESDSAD
# UniProt O94885: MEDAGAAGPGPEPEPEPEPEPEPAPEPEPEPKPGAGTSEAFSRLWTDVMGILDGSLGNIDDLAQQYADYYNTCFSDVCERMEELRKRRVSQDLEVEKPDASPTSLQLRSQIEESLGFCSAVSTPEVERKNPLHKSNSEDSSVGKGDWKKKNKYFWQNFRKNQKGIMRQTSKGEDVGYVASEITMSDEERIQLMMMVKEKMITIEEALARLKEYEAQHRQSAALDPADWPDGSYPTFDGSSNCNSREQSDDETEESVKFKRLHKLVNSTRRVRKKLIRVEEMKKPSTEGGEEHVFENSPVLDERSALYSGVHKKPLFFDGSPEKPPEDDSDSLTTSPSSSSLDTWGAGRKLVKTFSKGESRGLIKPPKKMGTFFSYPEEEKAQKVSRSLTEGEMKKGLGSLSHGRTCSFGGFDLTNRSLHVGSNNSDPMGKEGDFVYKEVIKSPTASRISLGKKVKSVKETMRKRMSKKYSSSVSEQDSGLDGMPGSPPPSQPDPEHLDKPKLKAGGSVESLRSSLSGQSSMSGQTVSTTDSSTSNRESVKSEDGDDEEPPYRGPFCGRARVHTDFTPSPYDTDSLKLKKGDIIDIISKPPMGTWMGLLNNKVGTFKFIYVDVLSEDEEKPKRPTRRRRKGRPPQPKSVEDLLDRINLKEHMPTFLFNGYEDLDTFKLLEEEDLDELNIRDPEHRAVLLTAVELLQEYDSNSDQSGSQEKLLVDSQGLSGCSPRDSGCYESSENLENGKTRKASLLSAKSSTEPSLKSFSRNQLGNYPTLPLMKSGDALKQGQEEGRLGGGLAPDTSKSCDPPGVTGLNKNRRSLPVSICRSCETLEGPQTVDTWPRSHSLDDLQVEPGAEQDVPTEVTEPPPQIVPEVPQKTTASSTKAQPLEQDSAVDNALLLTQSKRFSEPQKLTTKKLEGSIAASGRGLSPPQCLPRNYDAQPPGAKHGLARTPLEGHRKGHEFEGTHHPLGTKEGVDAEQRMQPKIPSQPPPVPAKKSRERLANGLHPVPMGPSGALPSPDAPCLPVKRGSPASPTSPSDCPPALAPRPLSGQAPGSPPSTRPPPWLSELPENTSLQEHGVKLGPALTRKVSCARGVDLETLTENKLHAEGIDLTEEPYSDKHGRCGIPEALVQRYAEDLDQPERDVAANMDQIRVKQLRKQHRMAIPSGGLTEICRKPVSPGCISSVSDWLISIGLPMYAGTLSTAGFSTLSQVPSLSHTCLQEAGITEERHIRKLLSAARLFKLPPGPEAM
# UniProt O15126: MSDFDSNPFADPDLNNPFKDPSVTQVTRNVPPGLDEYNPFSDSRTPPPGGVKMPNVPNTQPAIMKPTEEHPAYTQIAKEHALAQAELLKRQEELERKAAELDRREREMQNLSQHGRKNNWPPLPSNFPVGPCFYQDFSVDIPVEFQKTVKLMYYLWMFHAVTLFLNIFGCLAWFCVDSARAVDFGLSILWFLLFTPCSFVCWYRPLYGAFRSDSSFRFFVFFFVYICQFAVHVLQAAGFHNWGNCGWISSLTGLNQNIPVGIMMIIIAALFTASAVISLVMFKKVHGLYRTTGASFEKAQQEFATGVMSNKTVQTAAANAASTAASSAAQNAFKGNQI
# UniProt Q9HB40: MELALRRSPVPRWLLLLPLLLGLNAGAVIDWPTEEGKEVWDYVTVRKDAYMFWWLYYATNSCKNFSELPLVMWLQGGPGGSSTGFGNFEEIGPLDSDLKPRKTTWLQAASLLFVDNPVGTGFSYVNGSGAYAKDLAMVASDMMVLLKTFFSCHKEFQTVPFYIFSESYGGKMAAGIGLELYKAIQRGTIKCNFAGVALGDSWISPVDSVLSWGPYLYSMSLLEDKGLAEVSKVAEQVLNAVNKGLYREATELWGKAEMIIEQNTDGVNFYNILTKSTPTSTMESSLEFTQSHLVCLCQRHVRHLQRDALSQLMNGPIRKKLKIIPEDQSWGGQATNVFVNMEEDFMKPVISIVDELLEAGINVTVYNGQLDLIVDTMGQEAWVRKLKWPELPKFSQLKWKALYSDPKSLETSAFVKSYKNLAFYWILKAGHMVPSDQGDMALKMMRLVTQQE
# UniProt Q9NSI8: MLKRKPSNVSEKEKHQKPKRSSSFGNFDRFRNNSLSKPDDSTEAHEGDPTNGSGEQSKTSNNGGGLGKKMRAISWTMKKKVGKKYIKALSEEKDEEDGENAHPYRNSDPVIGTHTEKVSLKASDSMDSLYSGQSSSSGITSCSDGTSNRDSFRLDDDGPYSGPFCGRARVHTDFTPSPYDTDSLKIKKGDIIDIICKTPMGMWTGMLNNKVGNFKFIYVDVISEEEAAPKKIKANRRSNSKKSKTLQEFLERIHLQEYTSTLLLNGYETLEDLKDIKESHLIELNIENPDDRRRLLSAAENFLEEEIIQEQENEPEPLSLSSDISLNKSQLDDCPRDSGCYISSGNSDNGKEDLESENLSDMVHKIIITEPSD
# UniProt O15027: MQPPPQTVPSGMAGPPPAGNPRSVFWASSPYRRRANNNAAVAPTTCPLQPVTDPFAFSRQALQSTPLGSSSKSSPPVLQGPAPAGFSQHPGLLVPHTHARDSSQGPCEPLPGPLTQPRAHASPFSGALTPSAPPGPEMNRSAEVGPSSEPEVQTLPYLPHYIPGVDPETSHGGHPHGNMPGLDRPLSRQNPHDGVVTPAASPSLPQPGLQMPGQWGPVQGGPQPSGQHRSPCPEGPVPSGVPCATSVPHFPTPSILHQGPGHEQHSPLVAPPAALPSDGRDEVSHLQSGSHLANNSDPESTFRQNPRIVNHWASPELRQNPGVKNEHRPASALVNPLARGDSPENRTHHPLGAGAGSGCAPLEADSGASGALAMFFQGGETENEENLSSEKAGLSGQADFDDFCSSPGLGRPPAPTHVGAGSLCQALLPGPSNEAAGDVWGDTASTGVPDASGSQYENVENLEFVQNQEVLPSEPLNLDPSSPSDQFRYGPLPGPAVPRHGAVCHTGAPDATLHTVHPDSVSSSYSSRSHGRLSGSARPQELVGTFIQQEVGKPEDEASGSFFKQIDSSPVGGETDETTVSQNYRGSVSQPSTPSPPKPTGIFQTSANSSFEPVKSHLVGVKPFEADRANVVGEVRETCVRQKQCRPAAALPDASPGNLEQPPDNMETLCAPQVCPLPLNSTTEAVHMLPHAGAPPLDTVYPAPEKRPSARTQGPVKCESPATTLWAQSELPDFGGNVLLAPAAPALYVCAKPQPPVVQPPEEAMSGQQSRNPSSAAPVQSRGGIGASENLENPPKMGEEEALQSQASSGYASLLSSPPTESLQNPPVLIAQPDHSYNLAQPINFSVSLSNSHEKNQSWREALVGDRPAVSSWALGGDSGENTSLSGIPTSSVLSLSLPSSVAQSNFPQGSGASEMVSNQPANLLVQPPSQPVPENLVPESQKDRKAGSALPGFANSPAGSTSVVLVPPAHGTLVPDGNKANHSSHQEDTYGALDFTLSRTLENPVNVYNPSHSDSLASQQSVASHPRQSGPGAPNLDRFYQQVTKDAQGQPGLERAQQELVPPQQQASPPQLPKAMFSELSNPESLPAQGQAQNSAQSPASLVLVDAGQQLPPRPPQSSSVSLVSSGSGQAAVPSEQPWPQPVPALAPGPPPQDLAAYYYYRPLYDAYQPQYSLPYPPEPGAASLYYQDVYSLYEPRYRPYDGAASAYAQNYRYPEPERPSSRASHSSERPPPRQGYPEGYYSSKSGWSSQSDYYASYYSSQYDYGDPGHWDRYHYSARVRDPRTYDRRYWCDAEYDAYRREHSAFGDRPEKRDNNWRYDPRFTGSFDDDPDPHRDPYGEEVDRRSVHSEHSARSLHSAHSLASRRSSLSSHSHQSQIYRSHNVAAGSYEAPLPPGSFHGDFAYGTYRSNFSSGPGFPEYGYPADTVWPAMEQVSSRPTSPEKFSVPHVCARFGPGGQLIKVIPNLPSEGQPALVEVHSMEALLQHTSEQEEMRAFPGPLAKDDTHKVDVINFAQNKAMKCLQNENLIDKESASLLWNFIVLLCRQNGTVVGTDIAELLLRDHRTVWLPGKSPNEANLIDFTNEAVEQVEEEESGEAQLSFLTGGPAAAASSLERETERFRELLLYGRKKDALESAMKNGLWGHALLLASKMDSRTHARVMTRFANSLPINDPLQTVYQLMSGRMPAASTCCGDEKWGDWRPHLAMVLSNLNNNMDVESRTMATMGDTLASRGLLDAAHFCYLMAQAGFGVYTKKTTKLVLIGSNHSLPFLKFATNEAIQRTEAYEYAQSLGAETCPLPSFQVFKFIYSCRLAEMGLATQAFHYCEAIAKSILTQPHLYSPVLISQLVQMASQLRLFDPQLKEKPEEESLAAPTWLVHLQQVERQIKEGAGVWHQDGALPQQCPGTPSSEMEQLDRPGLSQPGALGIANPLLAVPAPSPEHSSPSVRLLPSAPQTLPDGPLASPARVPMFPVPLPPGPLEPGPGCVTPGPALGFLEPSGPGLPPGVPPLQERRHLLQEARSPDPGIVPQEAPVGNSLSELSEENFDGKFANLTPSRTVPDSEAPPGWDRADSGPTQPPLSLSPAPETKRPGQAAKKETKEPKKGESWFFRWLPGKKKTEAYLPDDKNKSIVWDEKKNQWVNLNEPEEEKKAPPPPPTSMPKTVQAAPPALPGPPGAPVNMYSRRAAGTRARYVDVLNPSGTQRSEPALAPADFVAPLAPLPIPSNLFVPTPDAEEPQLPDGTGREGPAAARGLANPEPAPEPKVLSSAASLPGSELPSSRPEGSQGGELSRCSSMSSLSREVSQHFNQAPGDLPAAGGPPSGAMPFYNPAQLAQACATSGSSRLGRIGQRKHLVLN
# UniProt Q6UVJ0: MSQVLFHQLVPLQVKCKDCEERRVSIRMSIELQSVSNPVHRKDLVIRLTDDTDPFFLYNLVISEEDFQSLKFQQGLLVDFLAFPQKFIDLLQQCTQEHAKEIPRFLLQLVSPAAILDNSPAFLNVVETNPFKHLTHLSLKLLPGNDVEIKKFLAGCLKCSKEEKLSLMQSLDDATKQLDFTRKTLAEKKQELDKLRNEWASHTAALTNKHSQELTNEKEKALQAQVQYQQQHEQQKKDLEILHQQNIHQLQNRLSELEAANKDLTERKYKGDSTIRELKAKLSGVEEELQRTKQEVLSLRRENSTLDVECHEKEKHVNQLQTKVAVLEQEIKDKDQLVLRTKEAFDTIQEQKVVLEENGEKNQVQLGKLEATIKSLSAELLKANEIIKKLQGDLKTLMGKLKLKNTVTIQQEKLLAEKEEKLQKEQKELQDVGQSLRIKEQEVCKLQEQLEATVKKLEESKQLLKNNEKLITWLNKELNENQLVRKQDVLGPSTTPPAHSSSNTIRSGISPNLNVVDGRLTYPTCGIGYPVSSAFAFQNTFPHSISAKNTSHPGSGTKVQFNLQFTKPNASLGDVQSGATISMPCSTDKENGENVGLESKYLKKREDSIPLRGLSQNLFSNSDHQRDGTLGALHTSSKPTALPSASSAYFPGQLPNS
# The list shows a part of the results. Residues, ends and D or L forms follow the SMILES beside them. *: point of attachment. Cbz = O=C(OCc1ccccc1)*
# Assays:
# Assay in all cases: log2 fold change, soluble protein after heating vs DMSO (PISA); higher = thermal stabilisation; K562 cells, 10 uM, 30 min; active = over 0.2 and 3.5 SD of the protein, either way, in both replicates (recomputed)
# erlotinib = compound: C#Cc1cccc(Nc2ncnc3cc(OCCOC)c(OCCOC)cc23)c1 [erlotinib]
# In short: (§1)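 K562 cells at 2×10^6 cells/mL were exposed to 10 μM compound for 30 min, then aliquots were heated for 3 min across 48°C-58°C, pooled, and extracted in PBS containing 0.5% NP-40 at 4°C. The supernatant after 21,000xg for 90 min was taken as soluble protein and measured by TMTpro 16plex LC-MS/MS with channel sums equalised. Thermal stability is reported relative to control samples, with values from duplicates. Fold changes are given on a log2 scale.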
# [1] = compound: C/C(=N\NC(=O)C1=CC(=CC=C1)S(=O)(=O)N2CCOCC2)/C3=C(C=CC(=C3)Cl)O
# In short: as §1
# [2] = compound: C1=CC(=C(C=C1Cl)C2=NC3=NC=CN=C3C(=N2)NC4=CC=NC=C4)F
# In short: as §1
# [3] = compound: C1=CC(=CC=C1C2=NC3=C(N2)C=C(C=C3)C(=O)N)OC4=CC=C(C=C4)Cl
# In short: as §1
# [4] = compound: C1=CC2=C(C=CC(=C2)/C=C\3/C(=O)NC(=NCC4=CC=CS4)S3)N=C1
# In short: as §1
# [5] = compound: C1=CC2=NC=CN=C2C=C1/C=C/3\C(=O)NC(=O)S3
# In short: as §1
# [6] = compound: C1=CC=C(C=C1)C2=NC(=C(N2)C3=CC=NC=C3)C4=CC(=C(C=C4)Cl)O
# In short: as §1
# [7] = compound: C1=CC=C2C(=C1)C3=NNC4=CC=CC(=C43)C2=O
# In short: as §1
# [8] = compound: C1CCN(C1)C(=O)NC2=CC=CC(=C2)NC3=NC=C(C(=N3)NCCC4=CN=CN4)Br
# In short: as §1
# [9] = compound: C1CN(CCC1(CC2=CC=C(C=C2)Cl)N)C3=NC=NC4=C3C=CN4
# In short: as §1
# IRAK-1-4 Inhibitor I = compound: C1COCCN1CCN2C3=CC=CC=C3N=C2NC(=O)C4=CC(=CC=C4)[N+](=O)[O-] [IRAK-1-4 Inhibitor I]
# In short: as §1
# ibrutinib = compound: C=CC(=O)N1CCC[C@@H](n2nc(-c3ccc(Oc4ccccc4)cc3)c3c(N)ncnc32)C1 [ibrutinib]
# In short: as §1
# [10] = compound: CC(=O)c1cnc2ccc(-c3cc(Cl)c(O)c(Cl)c3)nc2c1N[C@H]1CC[C@H](CN(C)C)CC1
# In short: as §1
# ralimetinib = compound: CC(C)(C)Cn1c(N)nc2ccc(-c3[nH]c(C(C)(C)C)nc3-c3ccc(F)cc3)nc21 [ralimetinib]
# In short: as §1
# [11] = compound: CC(C)(O)CC(=O)NCCn1ccc2ncnc(Nc3ccc(Oc4cccc(C(F)(F)F)c4)c(Cl)c3)c21
# In short: as §1
# [12] = compound: CC(C)C1=C2N=C(C=C(N2N=C1)NCC3=CC=CC=C3)NCCCCCCN
# In short: as §1
# [13] = compound: CC(C)C[C@@H](C=O)NC(=O)[C@H](CC(C)C)NC(=O)[C@H](CC(C)C)NC(=O)OCc1ccccc1
# In short: as §1
# pinometostat = compound: CC(C)N(C[C@H]1O[C@@H](n2cnc3c(N)ncnc32)[C@H](O)[C@@H]1O)[C@H]1C[C@@H](CCc2nc3cc(C(C)(C)C)ccc3[nH]2)C1 [pinometostat]
# In short: as §1
# [14] = compound: CC1=C(C2=C(C=C1)C(=O)C3=CC=CC=C3N2CCCN)C
# In short: as §1
# [15] = compound: CC1=C(C(CC(=O)N1)C2=CC=C(C=C2)C(F)(F)F)C(=O)NC3=C(C=C4C(=C3)C=NN4)F
# In short: as §1
Target,log2 fold change (erlotinib),log2 fold change [1],log2 fold change [2],log2 fold change [3],log2 fold change [4],log2 fold change [5],log2 fold change [6],log2 fold change [7],log2 fold change [8],log2 fold change [9],log2 fold change (IRAK-1-4 Inhibitor I),log2 fold change (ibrutinib),log2 fold change [10],log2 fold change (ralimetinib),log2 fold change [11],log2 fold change [12],log2 fold change [13],log2 fold change (pinometostat),log2 fold change [14],log2 fold change [15]
RSL1D1 (UniProt O76021),inactive: -0.115,inactive: -0.156,inactive: -0.504,inactive: 0.073,inactive: -0.054,inactive: 0.057,inactive: -0.141,inactive: -0.086,inactive: 0.016,inactive: -0.193,inactive: -0.071,inactive: -0.011,inactive: 0.22,inactive: 0.105,inactive: 0.212,inactive: 0.538,inactive: 0.076,inactive: 0.393,inactive: -0.299,–
RWDD1 (UniProt Q9H446),inactive: 0.017,inactive: 0.053,inactive: -0.001,inactive: -0.011,inactive: 0.024,inactive: 0.047,inactive: 0.056,inactive: -0.029,inactive: 0.001,inactive: -0.009,inactive: 0.003,inactive: -0.04,inactive: -0.019,inactive: -0.089,inactive: 0.014,inactive: -0.016,inactive: -0.056,inactive: -0.036,inactive: 0.03,inactive: -0.019
SASH1 (UniProt O94885),inactive: -0.013,inactive: 0.12,inactive: 0.145,inactive: -0.01,inactive: -0.104,inactive: -0.009,inactive: 0.005,inactive: 0.107,inactive: -0.041,inactive: -0.079,inactive: 0.145,inactive: -0.069,inactive: -0.097,inactive: -0.138,inactive: 0.002,inactive: -0.25,inactive: 0.152,inactive: 0.081,inactive: 0.07,–
SCAMP1 (UniProt O15126),inactive: 0.015,inactive: -0.04,inactive: 0.019,inactive: 0.037,inactive: -0.046,inactive: 0.025,inactive: 0.001,inactive: -0.032,inactive: 0.011,inactive: 0.057,inactive: 0.02,inactive: 0.037,inactive: -0.003,inactive: -0.072,inactive: 0.019,inactive: 0.004,inactive: -0.024,inactive: 0.015,inactive: -0.059,inactive: 0.002
SCPEP1 (UniProt Q9HB40),inactive: -0.002,inactive: 0.017,inactive: 0.064,inactive: 0.015,inactive: -0.024,inactive: 0.058,inactive: -0.013,inactive: 0.017,inactive: -0.012,inactive: 0.079,inactive: 0.044,inactive: 0.072,inactive: -0.008,inactive: -0.005,inactive: -0.038,active: -0.5,inactive: 0.007,inactive: -0.032,inactive: 0.073,–
SAMSN1 isoform 3 (UniProt Q9NSI8),inactive: 0.027,inactive: 0.012,inactive: -0.006,inactive: 0.001,inactive: 0.037,inactive: 0.021,inactive: -0.009,inactive: -0.022,inactive: 0.007,inactive: -0.114,inactive: 0.028,inactive: -0.021,inactive: -0.125,inactive: -0.016,inactive: -0.034,inactive: -0.095,inactive: 0.041,inactive: 0.014,inactive: 0.008,–
SEC16A isoform 5 (UniProt O15027),inactive: 0.126,inactive: -0.143,inactive: -0.064,inactive: 0.015,inactive: 0.153,inactive: -0.018,inactive: 0.044,inactive: 0.069,inactive: 0.06,inactive: 0.017,inactive: -0.136,inactive: -0.062,inactive: -0.069,inactive: 0.172,inactive: -0.177,active: -0.282,inactive: 0.046,inactive: 0.097,inactive: 0.025,–
SASS6 (UniProt Q6UVJ0),inactive: 0.034,inactive: -0.05,inactive: -0.06,inactive: -0.174,inactive: 0.082,inactive: -0.242,inactive: 0.075,inactive: 0.124,inactive: -0.068,inactive: 0.02,inactive: 0.094,inactive: 0.221,inactive: 0,inactive: 0.113,inactive: 0,inactive: -0.198,inactive: 0.089,inactive: 0.028,inactive: 0.174,inactive: -0.001

# Whole records from above. Values in the order: log2 fold change (erlotinib) | log2 fold change [1] | log2 fold change [2] | log2 fold change [3] | log2 fold change [4] | log2 fold change [5] | log2 fold change [6] | log2 fold change [7] | log2 fold change [8] | log2 fold change [9] | log2 fold change (IRAK-1-4 Inhibitor I) | log2 fold change (ibrutinib) | log2 fold change [10] | log2 fold change (ralimetinib) | log2 fold change [11] | log2 fold change [12] | log2 fold change [13] | log2 fold change (pinometostat) | log2 fold change [14] | log2 fold change [15]
# SASS6 (UniProt Q6UVJ0) as listed: inactive: 0.034 | inactive: -0.05 | inactive: -0.06 | inactive: -0.174 | inactive: 0.082 | inactive: -0.242 | inactive: 0.075 | inactive: 0.124 | inactive: -0.068 | inactive: 0.02 | inactive: 0.094 | inactive: 0.221 | inactive: 0 | inactive: 0.113 | inactive: 0 | inactive: -0.198 | inactive: 0.089 | inactive: 0.028 | inactive: 0.174 | inactive: -0.001
# RSL1D1 (UniProt O76021) as listed: inactive: -0.115 | inactive: -0.156 | inactive: -0.504 | inactive: 0.073 | inactive: -0.054 | inactive: 0.057 | inactive: -0.141 | inactive: -0.086 | inactive: 0.016 | inactive: -0.193 | inactive: -0.071 | inactive: -0.011 | inactive: 0.22 | inactive: 0.105 | inactive: 0.212 | inactive: 0.538 | inactive: 0.076 | inactive: 0.393 | inactive: -0.299 | –
